From paper PMC10618185
Results are given in words; binding and its absence hold for the method and conditions named. Binding seen in cells or lysates may run through a third protein. Some binding calls cover weakened binding; strength is not graded here. Tags and fused reporters may be left off the sequences shown. Values belong to the binder of their own block, whether it stands above or below them.

What was measured:
Conditions in all cases: remark: other sources report otherwise
[1] = target: T1, Myc-VPS41 (human (cDNA from HeLa Kyoto cells)), P49754; assay: co-IP; HeLa cells stably expressing V5-VPS16, transiently co-transfected with Myc-VPS41 or Myc-VPS8, His-VPS18, FLAG-VPS11 and HA-VPS39 or HA-VPS3; cells homogenised in PBS with protease inhibitors; IP with anti-Myc antibody and Protein G magnetic beads, 4 °C overnight; blots with anti-tag antibodies
T1 chain: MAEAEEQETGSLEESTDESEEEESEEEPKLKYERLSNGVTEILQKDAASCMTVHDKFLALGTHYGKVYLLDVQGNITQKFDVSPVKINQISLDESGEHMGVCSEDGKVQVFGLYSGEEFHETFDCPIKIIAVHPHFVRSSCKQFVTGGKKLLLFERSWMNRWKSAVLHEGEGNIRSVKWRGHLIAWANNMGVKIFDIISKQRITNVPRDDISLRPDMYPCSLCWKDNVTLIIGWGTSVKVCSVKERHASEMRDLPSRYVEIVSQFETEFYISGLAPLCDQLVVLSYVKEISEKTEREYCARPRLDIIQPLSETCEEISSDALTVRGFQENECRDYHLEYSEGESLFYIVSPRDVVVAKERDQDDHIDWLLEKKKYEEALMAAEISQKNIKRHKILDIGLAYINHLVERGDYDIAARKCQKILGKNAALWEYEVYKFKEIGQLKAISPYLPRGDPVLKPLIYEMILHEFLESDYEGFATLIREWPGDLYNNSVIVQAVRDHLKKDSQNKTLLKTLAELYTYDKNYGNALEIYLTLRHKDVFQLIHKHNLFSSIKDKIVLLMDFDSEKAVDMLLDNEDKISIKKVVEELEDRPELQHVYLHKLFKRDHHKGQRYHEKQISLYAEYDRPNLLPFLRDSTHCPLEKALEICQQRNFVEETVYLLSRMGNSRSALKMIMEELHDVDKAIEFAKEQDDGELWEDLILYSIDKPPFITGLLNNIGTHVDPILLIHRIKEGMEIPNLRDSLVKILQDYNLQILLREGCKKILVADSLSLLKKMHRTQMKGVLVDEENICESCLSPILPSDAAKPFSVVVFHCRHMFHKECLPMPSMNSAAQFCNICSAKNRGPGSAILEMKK

[2] = target: T1, Myc-VPS41 (human (cDNA from HeLa Kyoto …)); assay: co-IP; WT HeLa cells with single expression of Myc-VPS41, Myc-VPS8, HA-VPS39 or HA-VPS3; lysate in PBS; IP with anti-Myc or anti-HA antibody and Protein G magnetic beads; endogenous partners detected by western blotting
[3] = target: T2, HA-VPS3 (human (cDNA from HeLa Kyoto cells)), Q8WUH2; assay: as above
T2 chain: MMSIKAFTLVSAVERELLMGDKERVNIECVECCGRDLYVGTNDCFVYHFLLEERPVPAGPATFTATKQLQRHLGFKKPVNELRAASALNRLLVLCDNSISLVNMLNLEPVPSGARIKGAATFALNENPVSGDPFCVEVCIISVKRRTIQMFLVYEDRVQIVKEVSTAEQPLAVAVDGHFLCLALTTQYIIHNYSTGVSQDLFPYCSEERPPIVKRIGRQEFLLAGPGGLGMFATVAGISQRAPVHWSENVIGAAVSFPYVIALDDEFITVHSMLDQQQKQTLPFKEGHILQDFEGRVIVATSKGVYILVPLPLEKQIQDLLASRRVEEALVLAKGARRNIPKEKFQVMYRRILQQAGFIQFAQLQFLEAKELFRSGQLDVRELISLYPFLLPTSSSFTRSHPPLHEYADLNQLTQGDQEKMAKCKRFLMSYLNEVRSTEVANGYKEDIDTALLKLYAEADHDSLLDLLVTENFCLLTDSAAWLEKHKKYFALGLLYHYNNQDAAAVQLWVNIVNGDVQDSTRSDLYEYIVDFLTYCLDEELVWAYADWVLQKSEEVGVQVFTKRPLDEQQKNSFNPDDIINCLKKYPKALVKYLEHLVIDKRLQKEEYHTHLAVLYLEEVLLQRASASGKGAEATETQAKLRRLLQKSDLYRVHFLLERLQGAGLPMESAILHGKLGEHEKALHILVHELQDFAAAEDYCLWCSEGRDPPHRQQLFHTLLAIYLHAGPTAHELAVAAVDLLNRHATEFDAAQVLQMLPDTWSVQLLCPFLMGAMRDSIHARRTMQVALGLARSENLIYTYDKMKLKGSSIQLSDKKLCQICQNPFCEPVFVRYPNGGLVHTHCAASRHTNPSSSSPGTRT

binding [1]: binds
B1: HA-VPS3, Q8WUH2 1-860 (protein)
chain: MMSIKAFTLVSAVERELLMGDKERVNIECVECCGRDLYVGTNDCFVYHFLLEERPVPAGPATFTATKQLQRHLGFKKPVNELRAASALNRLLVLCDNSISLVNMLNLEPVPSGARIKGAATFALNENPVSGDPFCVEVCIISVKRRTIQMFLVYEDRVQIVKEVSTAEQPLAVAVDGHFLCLALTTQYIIHNYSTGVSQDLFPYCSEERPPIVKRIGRQEFLLAGPGGLGMFATVAGISQRAPVHWSENVIGAAVSFPYVIALDDEFITVHSMLDQQQKQTLPFKEGHILQDFEGRVIVATSKGVYILVPLPLEKQIQDLLASRRVEEALVLAKGARRNIPKEKFQVMYRRILQQAGFIQFAQLQFLEAKELFRSGQLDVRELISLYPFLLPTSSSFTRSHPPLHEYADLNQLTQGDQEKMAKCKRFLMSYLNEVRSTEVANGYKEDIDTALLKLYAEADHDSLLDLLVTENFCLLTDSAAWLEKHKKYFALGLLYHYNNQDAAAVQLWVNIVNGDVQDSTRSDLYEYIVDFLTYCLDEELVWAYADWVLQKSEEVGVQVFTKRPLDEQQKNSFNPDDIINCLKKYPKALVKYLEHLVIDKRLQKEEYHTHLAVLYLEEVLLQRASASGKGAEATETQAKLRRLLQKSDLYRVHFLLERLQGAGLPMESAILHGKLGEHEKALHILVHELQDFAAAEDYCLWCSEGRDPPHRQQLFHTLLAIYLHAGPTAHELAVAAVDLLNRHATEFDAAQVLQMLPDTWSVQLLCPFLMGAMRDSIHARRTMQVALGLARSENLIYTYDKMKLKGSSIQLSDKKLCQICQNPFCEPVFVRYPNGGLVHTHCAASRHTNPSSSSPGTRT

binding [2]: binds
B2: endogenous VPS3, Q8WUH2 1-860 (protein)
chain: MMSIKAFTLVSAVERELLMGDKERVNIECVECCGRDLYVGTNDCFVYHFLLEERPVPAGPATFTATKQLQRHLGFKKPVNELRAASALNRLLVLCDNSISLVNMLNLEPVPSGARIKGAATFALNENPVSGDPFCVEVCIISVKRRTIQMFLVYEDRVQIVKEVSTAEQPLAVAVDGHFLCLALTTQYIIHNYSTGVSQDLFPYCSEERPPIVKRIGRQEFLLAGPGGLGMFATVAGISQRAPVHWSENVIGAAVSFPYVIALDDEFITVHSMLDQQQKQTLPFKEGHILQDFEGRVIVATSKGVYILVPLPLEKQIQDLLASRRVEEALVLAKGARRNIPKEKFQVMYRRILQQAGFIQFAQLQFLEAKELFRSGQLDVRELISLYPFLLPTSSSFTRSHPPLHEYADLNQLTQGDQEKMAKCKRFLMSYLNEVRSTEVANGYKEDIDTALLKLYAEADHDSLLDLLVTENFCLLTDSAAWLEKHKKYFALGLLYHYNNQDAAAVQLWVNIVNGDVQDSTRSDLYEYIVDFLTYCLDEELVWAYADWVLQKSEEVGVQVFTKRPLDEQQKNSFNPDDIINCLKKYPKALVKYLEHLVIDKRLQKEEYHTHLAVLYLEEVLLQRASASGKGAEATETQAKLRRLLQKSDLYRVHFLLERLQGAGLPMESAILHGKLGEHEKALHILVHELQDFAAAEDYCLWCSEGRDPPHRQQLFHTLLAIYLHAGPTAHELAVAAVDLLNRHATEFDAAQVLQMLPDTWSVQLLCPFLMGAMRDSIHARRTMQVALGLARSENLIYTYDKMKLKGSSIQLSDKKLCQICQNPFCEPVFVRYPNGGLVHTHCAASRHTNPSSSSPGTRT

binding [3]: binds
B3: endogenous VPS41, P49754 1-854 (protein)
chain: MAEAEEQETGSLEESTDESEEEESEEEPKLKYERLSNGVTEILQKDAASCMTVHDKFLALGTHYGKVYLLDVQGNITQKFDVSPVKINQISLDESGEHMGVCSEDGKVQVFGLYSGEEFHETFDCPIKIIAVHPHFVRSSCKQFVTGGKKLLLFERSWMNRWKSAVLHEGEGNIRSVKWRGHLIAWANNMGVKIFDIISKQRITNVPRDDISLRPDMYPCSLCWKDNVTLIIGWGTSVKVCSVKERHASEMRDLPSRYVEIVSQFETEFYISGLAPLCDQLVVLSYVKEISEKTEREYCARPRLDIIQPLSETCEEISSDALTVRGFQENECRDYHLEYSEGESLFYIVSPRDVVVAKERDQDDHIDWLLEKKKYEEALMAAEISQKNIKRHKILDIGLAYINHLVERGDYDIAARKCQKILGKNAALWEYEVYKFKEIGQLKAISPYLPRGDPVLKPLIYEMILHEFLESDYEGFATLIREWPGDLYNNSVIVQAVRDHLKKDSQNKTLLKTLAELYTYDKNYGNALEIYLTLRHKDVFQLIHKHNLFSSIKDKIVLLMDFDSEKAVDMLLDNEDKISIKKVVEELEDRPELQHVYLHKLFKRDHHKGQRYHEKQISLYAEYDRPNLLPFLRDSTHCPLEKALEICQQRNFVEETVYLLSRMGNSRSALKMIMEELHDVDKAIEFAKEQDDGELWEDLILYSIDKPPFITGLLNNIGTHVDPILLIHRIKEGMEIPNLRDSLVKILQDYNLQILLREGCKKILVADSLSLLKKMHRTQMKGVLVDEENICESCLSPILPSDAAKPFSVVVFHCRHMFHKECLPMPSMNSAAQFCNICSAKNRGPGSAILEMKK
